Source: PMC4784909, “The Structural Basis of Coenzyme A Recycling in a Bacterial Organelle” (PLoS Biology, 2016)
Results are given in words; binding and its absence hold for the method and conditions named. Some results given as binding are weak or reduced against the parent protein; the word gives no strength. Each block holds one binder with its values, some of them ahead of it.

Columns and labels:
[1] = biological target: rPduLΔEP (PduL from the grm3 locus of Rhodopseudomonas palustris BisB18, N-terminal putative encapsulation peptide removed) (Rhodopseudomonas palustris BisB18) (UniProt Q21A54); assay: crystal structure; rPduLΔEP crystals from 39%-35% MPD, sitting drop, 22°C; CoA-bound (native) and phosphate-soaked forms; two molecules in the asymmetric unit; both purified
[2] = biological target: sPduLΔEP (PduL from the pdu locus of Salmonella enterica Typhimurium LT2, putative encapsulation peptide residues 1-27 removed) (Salmonella enterica Typhimurium LT2) (UniProt Q9XDN5); assay: SEC; post-nickel affinity protein on HiLoad 26/60 Superdex 200 preparative column, pooled fractions (1-20 mg/mL) on Superdex 200 10/300 GL analytical column; 20 mM Tris pH 7.4, 50 mM NaCl; both purified
[3] = biological target: sPduL, full length (PduL from the pdu locus of Salmonella enterica Typhimurium LT2) (Salmonella enterica Typhimurium LT2) (UniProt Q9XDN5); assay: as above

- binding [1]: binds
B1: rPduLΔEP (PduL from the grm3 locus of Rhodopseudomonas palustris BisB18, N-terminal putative encapsulation peptide removed) (enzyme, UniProt Q21A54 34-226, looked up)
chain: GVDPFQVAVGVSNRHIHLSRTDMDTLFGPGAELQRKKAMKQPGQFAAEETVTLKGPKGSLSKVRVLGPLRRETQVEVSVADGFALGITPPLRQSGQLDDTPGLTIIGPQGSVTKDHGVIVAQRHIHMHPSTAAKLGLRNGDEVDVEAGGERGGVMHRVLIRVAEASADEMHIDVEEANALCLKNDDVVRICKK
notes: PduL phosphotransacylase, grm3 locus, Rhodopseudomonas palustris BisB18; N-terminal putative EP (33 amino acids) removed; the crystallized construct begins with M-G-V; The construct begins with M-G-V; Gene codon optimized and synthesized with the 6xHis tag; no tag cleavage step is described; Crystals hold CoA (or phosphate) and two zinc ions per chain; also called truncated rPduL; Pdul-His; …

- binding [2]: no binding
B2: sPduLΔEP (PduL from the pdu locus of Salmonella enterica Typhimurium LT2, putative encapsulation peptide residues 1-27 removed) (enzyme, UniProt Q9XDN5 28-210)
chain: NRHIHLSAQDYERLFPGHPISEKKALLQPGQYAAEQTVTLVGPKGQLKNVRLLGPLRSVSQVEISRTDARTLGIAAPLRMSGNLKGTPGIRLVSPFAELELPSGVIVAQRHIHMSPLDALILRVSHGDMVSVAIEGDDRGLIFNNVAIRVSPDMRLEMHIDTDEANAAGADNPHAFARLVGPR

- binding [3]: no binding
B3: sPduL, full length (PduL from the pdu locus of Salmonella enterica Typhimurium LT2) (enzyme, UniProt Q9XDN5 1-210)
chain: MDKELLQSTVRKVLDEMRQRPIPLGVSNRHIHLSAQDYERLFPGHPISEKKALLQPGQYAAEQTVTLVGPKGQLKNVRLLGPLRSVSQVEISRTDARTLGIAAPLRMSGNLKGTPGIRLVSPFAELELPSGVIVAQRHIHMSPLDALILRVSHGDMVSVAIEGDDRGLIFNNVAIRVSPDMRLEMHIDTDEANAAGADNPHAFARLVGPR
